The values below come from the supplement of paper PMC10849652.

Chains of the proteins cited; added tags and fusions are not shown. Lines headed by an entry give the natural chain unless they say otherwise; changes in a name come on top.
UniProt Q8WU76: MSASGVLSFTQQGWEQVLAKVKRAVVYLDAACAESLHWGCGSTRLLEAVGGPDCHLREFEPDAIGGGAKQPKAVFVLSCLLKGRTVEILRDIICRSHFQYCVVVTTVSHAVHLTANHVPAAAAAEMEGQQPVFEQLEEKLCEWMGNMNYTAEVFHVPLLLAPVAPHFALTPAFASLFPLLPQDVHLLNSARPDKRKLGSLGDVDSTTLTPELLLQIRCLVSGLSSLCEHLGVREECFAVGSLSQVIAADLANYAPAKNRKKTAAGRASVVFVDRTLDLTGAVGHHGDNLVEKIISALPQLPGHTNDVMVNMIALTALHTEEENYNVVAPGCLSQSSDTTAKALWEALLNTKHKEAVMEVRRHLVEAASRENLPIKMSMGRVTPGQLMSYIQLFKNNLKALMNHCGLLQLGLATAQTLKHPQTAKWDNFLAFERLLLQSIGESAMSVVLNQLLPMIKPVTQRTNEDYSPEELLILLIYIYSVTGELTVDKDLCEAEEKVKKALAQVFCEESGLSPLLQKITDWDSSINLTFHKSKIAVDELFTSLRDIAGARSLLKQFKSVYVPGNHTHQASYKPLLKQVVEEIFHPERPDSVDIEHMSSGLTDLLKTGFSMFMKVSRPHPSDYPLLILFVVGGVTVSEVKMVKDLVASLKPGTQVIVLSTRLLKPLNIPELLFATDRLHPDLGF
UniProt Q8WTV0: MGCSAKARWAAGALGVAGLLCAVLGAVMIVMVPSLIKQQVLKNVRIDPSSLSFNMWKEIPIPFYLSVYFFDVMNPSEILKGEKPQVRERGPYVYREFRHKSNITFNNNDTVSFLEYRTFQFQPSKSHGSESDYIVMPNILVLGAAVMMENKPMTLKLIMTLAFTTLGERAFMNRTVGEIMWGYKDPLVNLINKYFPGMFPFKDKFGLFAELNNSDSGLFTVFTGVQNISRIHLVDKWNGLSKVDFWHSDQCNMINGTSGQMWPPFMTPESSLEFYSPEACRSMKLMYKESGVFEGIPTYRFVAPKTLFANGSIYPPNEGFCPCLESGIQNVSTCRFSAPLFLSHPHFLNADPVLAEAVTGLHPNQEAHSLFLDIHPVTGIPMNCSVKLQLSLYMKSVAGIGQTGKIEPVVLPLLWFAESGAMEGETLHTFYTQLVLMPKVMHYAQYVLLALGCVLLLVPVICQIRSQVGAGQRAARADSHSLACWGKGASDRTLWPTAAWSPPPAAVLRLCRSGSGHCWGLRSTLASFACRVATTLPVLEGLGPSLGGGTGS
UniProt Q9Y6U3: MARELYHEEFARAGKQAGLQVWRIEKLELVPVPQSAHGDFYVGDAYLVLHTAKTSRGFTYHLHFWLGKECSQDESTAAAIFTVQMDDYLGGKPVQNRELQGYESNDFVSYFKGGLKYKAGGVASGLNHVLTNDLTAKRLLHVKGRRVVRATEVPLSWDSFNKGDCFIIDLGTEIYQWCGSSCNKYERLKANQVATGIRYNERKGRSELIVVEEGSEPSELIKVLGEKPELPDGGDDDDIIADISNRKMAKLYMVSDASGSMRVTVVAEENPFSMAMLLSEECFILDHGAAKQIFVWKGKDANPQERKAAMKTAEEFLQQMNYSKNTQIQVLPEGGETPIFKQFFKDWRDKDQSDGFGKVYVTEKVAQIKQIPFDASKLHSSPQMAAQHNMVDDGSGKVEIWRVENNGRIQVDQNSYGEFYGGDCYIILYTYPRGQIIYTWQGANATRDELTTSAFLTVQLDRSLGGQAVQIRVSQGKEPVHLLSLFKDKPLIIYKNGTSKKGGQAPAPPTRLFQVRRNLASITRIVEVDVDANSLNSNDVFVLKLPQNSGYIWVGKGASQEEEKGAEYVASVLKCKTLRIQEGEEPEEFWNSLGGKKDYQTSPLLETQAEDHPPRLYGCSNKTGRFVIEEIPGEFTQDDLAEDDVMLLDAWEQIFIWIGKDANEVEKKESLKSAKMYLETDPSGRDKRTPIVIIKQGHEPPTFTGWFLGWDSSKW
UniProt Q9BRK5: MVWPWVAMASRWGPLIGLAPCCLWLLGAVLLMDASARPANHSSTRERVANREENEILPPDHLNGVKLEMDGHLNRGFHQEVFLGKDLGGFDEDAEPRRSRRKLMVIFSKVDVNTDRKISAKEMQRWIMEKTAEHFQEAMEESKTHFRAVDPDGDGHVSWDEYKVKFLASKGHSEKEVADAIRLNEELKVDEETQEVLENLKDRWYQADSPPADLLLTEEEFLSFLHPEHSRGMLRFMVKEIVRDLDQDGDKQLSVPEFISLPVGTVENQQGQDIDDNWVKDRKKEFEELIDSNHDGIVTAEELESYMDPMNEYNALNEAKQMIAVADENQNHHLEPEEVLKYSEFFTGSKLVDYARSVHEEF
UniProt Q8N488: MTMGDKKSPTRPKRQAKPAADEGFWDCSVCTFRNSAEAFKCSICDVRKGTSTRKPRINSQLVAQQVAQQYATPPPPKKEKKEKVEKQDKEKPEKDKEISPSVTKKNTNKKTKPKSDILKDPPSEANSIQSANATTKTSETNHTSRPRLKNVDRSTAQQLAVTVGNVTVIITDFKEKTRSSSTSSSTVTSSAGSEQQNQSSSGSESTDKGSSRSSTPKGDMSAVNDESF
UniProt Q9Y224: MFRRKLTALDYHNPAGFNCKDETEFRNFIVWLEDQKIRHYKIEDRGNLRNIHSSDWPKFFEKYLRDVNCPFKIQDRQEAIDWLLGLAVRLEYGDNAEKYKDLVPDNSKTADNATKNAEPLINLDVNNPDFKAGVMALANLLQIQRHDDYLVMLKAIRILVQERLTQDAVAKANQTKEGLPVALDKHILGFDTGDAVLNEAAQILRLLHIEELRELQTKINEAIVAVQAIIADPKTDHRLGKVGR
UniProt P31040: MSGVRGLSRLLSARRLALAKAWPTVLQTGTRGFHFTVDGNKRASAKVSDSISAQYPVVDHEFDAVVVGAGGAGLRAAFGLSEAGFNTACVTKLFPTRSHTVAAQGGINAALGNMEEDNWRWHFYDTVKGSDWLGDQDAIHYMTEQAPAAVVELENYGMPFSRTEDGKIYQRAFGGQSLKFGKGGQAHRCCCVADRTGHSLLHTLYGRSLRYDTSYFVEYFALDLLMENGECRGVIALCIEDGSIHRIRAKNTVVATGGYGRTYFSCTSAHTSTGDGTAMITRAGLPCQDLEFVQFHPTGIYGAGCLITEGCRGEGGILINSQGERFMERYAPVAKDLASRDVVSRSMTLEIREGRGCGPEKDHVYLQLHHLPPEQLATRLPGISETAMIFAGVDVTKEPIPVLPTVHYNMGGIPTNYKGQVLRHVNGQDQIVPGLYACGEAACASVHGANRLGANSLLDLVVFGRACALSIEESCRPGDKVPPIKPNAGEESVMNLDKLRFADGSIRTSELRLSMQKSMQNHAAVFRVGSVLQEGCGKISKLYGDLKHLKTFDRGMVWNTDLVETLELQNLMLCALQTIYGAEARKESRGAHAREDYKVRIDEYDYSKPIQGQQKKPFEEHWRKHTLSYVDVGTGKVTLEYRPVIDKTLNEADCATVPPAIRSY
UniProt Q9NRP4: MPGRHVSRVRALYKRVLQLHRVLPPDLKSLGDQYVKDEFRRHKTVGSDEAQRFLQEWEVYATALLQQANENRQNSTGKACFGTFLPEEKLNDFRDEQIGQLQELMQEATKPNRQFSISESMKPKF
UniProt A3KN83: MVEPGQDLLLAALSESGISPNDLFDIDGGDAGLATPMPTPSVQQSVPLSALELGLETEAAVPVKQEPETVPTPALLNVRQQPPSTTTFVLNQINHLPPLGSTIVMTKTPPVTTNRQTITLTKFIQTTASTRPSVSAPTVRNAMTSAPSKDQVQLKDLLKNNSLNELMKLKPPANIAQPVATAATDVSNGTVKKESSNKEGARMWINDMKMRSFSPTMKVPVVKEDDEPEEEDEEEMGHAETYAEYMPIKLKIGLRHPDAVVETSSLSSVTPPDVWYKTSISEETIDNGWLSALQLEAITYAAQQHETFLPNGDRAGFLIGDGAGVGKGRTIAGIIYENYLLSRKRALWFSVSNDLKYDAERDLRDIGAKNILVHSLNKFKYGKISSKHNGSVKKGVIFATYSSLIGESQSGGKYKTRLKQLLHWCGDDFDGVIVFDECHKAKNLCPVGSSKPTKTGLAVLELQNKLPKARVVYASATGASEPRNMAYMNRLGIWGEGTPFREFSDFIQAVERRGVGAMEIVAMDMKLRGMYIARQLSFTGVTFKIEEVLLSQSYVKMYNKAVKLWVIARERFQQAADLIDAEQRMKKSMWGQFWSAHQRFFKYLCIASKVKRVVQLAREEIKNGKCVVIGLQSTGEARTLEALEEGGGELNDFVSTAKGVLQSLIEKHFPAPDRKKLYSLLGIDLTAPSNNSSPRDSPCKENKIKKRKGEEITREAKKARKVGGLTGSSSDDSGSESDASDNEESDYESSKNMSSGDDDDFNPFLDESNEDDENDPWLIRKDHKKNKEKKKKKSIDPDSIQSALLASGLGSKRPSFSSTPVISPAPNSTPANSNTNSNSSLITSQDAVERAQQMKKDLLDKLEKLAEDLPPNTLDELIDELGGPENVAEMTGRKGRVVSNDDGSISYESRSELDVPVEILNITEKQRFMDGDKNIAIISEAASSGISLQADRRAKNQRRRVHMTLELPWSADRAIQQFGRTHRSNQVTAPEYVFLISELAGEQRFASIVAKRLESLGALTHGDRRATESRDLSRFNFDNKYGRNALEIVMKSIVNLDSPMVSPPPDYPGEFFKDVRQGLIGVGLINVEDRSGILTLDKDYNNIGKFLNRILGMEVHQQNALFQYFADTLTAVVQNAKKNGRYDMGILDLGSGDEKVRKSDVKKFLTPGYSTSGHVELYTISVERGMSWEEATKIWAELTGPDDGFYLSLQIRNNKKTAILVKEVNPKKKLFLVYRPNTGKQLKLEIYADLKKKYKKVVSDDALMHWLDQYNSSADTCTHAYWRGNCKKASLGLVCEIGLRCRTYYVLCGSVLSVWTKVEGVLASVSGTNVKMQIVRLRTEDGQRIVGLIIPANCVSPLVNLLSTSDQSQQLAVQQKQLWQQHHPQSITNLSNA
UniProt Q96I15: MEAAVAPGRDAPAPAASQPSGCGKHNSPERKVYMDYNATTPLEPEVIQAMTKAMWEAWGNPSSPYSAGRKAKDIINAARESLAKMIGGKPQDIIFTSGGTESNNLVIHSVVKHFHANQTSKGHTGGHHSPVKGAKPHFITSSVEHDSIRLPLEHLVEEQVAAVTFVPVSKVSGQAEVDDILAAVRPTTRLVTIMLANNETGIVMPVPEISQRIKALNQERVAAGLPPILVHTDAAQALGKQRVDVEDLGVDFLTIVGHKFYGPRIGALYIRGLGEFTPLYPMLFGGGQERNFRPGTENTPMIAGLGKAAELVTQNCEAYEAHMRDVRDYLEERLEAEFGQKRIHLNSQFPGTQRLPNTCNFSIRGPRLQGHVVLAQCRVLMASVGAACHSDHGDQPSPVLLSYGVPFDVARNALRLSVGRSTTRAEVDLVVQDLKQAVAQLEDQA
UniProt P25815: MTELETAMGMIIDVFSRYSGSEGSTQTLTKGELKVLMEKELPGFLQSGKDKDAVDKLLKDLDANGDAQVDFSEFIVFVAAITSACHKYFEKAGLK
UniProt P22307: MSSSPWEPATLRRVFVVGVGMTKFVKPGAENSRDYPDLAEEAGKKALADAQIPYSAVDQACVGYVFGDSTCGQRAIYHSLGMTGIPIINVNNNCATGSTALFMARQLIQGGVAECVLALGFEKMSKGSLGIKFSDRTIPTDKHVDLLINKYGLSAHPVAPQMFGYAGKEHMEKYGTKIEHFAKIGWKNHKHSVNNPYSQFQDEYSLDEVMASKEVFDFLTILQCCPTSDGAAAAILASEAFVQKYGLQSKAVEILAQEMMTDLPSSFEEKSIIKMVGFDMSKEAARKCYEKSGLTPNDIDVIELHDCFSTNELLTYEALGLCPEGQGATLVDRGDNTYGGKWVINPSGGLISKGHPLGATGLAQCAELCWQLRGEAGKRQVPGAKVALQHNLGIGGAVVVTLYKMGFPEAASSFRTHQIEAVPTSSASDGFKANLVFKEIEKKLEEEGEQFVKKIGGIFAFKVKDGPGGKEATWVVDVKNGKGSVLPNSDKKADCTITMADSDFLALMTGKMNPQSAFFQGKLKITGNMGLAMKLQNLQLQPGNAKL
UniProt Q14108: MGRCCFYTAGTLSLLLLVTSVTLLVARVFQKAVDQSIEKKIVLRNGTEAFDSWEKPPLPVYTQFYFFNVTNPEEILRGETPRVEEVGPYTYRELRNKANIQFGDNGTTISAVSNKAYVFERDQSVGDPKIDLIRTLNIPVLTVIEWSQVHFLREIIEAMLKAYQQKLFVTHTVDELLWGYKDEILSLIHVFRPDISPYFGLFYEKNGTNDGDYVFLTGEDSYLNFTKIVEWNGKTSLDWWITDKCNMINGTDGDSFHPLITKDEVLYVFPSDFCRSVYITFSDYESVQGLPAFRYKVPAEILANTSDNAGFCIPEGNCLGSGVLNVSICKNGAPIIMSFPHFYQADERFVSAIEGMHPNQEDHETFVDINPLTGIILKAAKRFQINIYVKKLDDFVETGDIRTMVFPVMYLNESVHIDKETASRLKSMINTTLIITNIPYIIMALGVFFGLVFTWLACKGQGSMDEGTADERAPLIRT

This is one part of the list.

Compound in the experiment: Cn1cncc1[C@@](N)(c1ccc(Cl)cc1)c1ccc2c(c1)c(-c1cccc(Cl)c1)cc(=O)n2C [tipifarnib]
Kind of experiment: log2 fold change, soluble protein after heating vs DMSO (PISA); higher = thermal stabilisation; K562 cells, 10 uM, 30 min; active = over 0.2 and 3.5 SD of the protein, either way, in both replicates (recomputed). The method, boiled down:
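K562 cells at 2×10^6 cells/mL were given 10 μM compound for 30 min. Aliquots then went through 3 min of heating across 48°C-58°C, were pooled, and were extracted in PBS with 0.5% NP-40 at 4°C, and the supernatant after 21,000xg for 90 min was quantified by TMTpro 16plex LC-MS/MS with channel sums equalised. Thermal stability relative to control samples, from duplicates, is given as log2 fold change.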
As to SCFD2 (UniProt Q8WU76), the log2 fold change was inactive: -0.038.
For the target SCARB1 isoform 2 (UniProt Q8WTV0), the log2 fold change was inactive: 0.009.
As to RWDD1 (UniProt Q9H446), the log2 fold change was inactive: 0.
SCIN (UniProt Q9Y6U3): the log2 fold change is inactive: -0.049.
SDF4 (UniProt Q9BRK5): the log2 fold change was inactive: -0.015.
With RYBP (UniProt Q8N488), the log2 fold change was inactive: 0.139.
On to SCO1 (UniProt O75880), for which the log2 fold change was inactive: 0.103.
As to SACS (UniProt Q9NZJ4), the log2 fold change was inactive: 0.133.
Turning to RTRAF (UniProt Q9Y224), the log2 fold change was inactive: 0.03.
Consider SCYL1 (UniProt Q96KG9), for which the log2 fold change is inactive: -0.035.
As for S100A6 (UniProt P06703), the log2 fold change was inactive: -0.131.
SDHA (UniProt P31040): the log2 fold change is inactive: 0.017.
Take RSBN1L (UniProt Q6PCB5): the log2 fold change was inactive: 0.293.
As for RUVBL1 (UniProt Q9Y265), the log2 fold change is inactive: 0.017.
As to SDHAF3 (UniProt Q9NRP4), the log2 fold change was inactive: 0.019.
Regarding SBNO1 (UniProt A3KN83), the log2 fold change is inactive: -0.06.
With SCLY (UniProt Q96I15) the figure was inactive: -0.023; with S100P (UniProt P25815), inactive: -0.059.
Turning to SCP2 (UniProt P22307), the log2 fold change is inactive: 0.004.
Turning to SCAMP4 (UniProt Q969E2), the log2 fold change is inactive: 0.003.
In the case of SCARB2 (UniProt Q14108), the log2 fold change is inactive: 0.023.
Take SCAP (UniProt Q12770): the log2 fold change was inactive: -0.001.
With SEC24D isoform 2 (UniProt O94855) the figure was inactive: -0.011.
RRP15 (UniProt Q9Y3B9): the log2 fold change was inactive: 0.061.
